Results deposited as PubChem BioAssay AID1259308 (NCATS, 2017).
Assay: 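Knock-downs that increase output of a recombinant reporter protein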 (primary screen). Cells: human HEK293 embryonic kidney cells stably expressing firefly luciferase (HEK-CMV-Luc2-Hygro). Reagents: single siRNA against human genes, 0.8 pmol siRNA per well. Timing: 72 h. Measured: 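Luciferase light (ONE-Glo) measured on one replicate plate set and viability (CellTiter-Glo) on the other, scaled to a negative control siRNA, with robust z-scores and luciferase per cell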. Reading the numbers: total luciferase, z-score and total luciferase, % of control: higher = more reporter protein produced; luciferase per cell, z-score: higher = more reporter output per viable cell; viable cells, % of control: higher = more viable cells. Rule for the call: 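Active when the median/MAD z-score for overall luciferase is greater than 3; a gene was taken forward for validation with new siRNAs if at least two of its three siRNAs passed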. Meaning of the calls: active = raised luciferase; inactive = no rise.
The deposit covers about 59,000 reagents; this is a random part of them. Over the whole deposit, about 1,510 (2.6%) were called active. 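Calls use total luciferase alone and ignore viability, so some active siRNAs may act by altering cell number.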 Unmarked entries are inactive. The numbers tell different reagents against one gene apart.

Gene,reagent no.,"total luciferase, z-score","total luciferase, % of control","luciferase per cell, z-score","viable cells, % of control"
RPRD1A,1,-0.69,68.2,0.62,64.7
RPRD1A,2,-0.831,65.4,-0.93,93.3
RPRD1A,3,-1.68,48.4,-1.22,74.6
COL8A2,1,2.02,122,1.91,82.6
COL8A2,2,-1.64,49.2,-0.646,65.1
COL8A2,3,2.94,140,2.19,88
MUC19,1,0.396,89.8,0.395,90.4
MUC19,2,0.884,99.5,0.993,85.6
MUC19,3,0.171,85.3,-0.842,119
MUC19,4,0.0552,83,0.932,72.6
MUC19,5,-0.198,78,0.0589,85.8
MUC19,6,0.509,92,1.05,77.9
EIF5,1,0.653,94.9,0.0161,106
EIF5,2,-0.179,78.3,-0.594,102
EIF5,3,-1.01,61.8,0.344,63
MED26,1,-0.99,62.2,0.374,63
MED26,2,-1.93,43.4,-0.902,61.5
MED26,3,0.156,85,0.701,79
OR52N5,1,-1.39,54.3,-0.358,66.7
OR52N5,2,0.099,83.9,-0.0187,94.2
OR52N5,3,1.18,105,0.356,107
PPP2R3B,1,3.8 (active),157,2.27,96.9
PPP2R3B,2,-0.918,63.6,-0.115,73.3
PPP2R3B,3,-0.839,65.2,-0.963,93.9

Just “total luciferase, z-score” (2 entries from above):
OR52N5 #1	-1.39
OR52N5 #2	0.099

Further records follow.
Gene,reagent no.,"total luciferase, z-score","total luciferase, % of control","luciferase per cell, z-score","viable cells, % of control"
HSFY1P1,1,-0.375,74.4,-0.35,91.2
HSFY1P1,2,1.73,116,1.33,91.5
HSFY1P1,3,-0.667,68.6,-0.473,86.9
WNT8A,1,-0.112,79.7,0.0457,87.9
WNT8A,2,1.01,102,1.53,76.3
WNT8A,3,-2.17,38.6,-1.08,57.3
PLEKHM2,1,0.167,85.2,-0.125,98.4
PLEKHM2,2,-0.00262,81.8,0.207,86.6
PLEKHM2,3,0.802,97.8,0.818,88.2
NPAS2,1,0.0422,82.7,0.0208,91.9
NPAS2,2,1.41,110,1.48,83.2
NPAS2,3,-0.0152,81.6,0.516,79.6
OLMALINC,1,0.0548,83,0.559,80
OLMALINC,2,-3.02,21.8,-4.5,79.7
OLMALINC,3,-0.696,68.1,-1.06,101
